Test results from patent US5366983A, “Use of quaternary ammonium compounds to remove salmonella contamination from meat products” (The Board of Trustees of The University of Arkansas, priority 1992, dated 1994).
For at least one compound, name, drawing or mass did not settle the structure.

Tested on: Salmonella typhimurium ATCC 14028
Assay: Effect on viability of Salmonella in suspension (Tables D-1 to D-3)
Type: cell-based
Conditions: viability testing in suspension
Protocol: EC50 values for four of the compounds were calculated from the bactericidal activity of the compounds as a function of molar concentration by a nonlinear regression algorithm.
In addition to the quaternary ammonium compounds, the antimicrobial activities of chelating agents Na2 -EDTA and EGTA were investigated. Na2 -EDTA was purchased from the Sigma Chemical Company (St. Louis, Mo.). Na2 -EDTA was dissolved in 0.04 M PPB prior to the assay and further dilutions were made in the same buffer.
EGTA was purchased from the Aldrich Chemical Company (Milwaukee, Wis.). EGTA was dissolved in 0.04 M PPB according to the procedure described by Harafuji and Ogawa (J. Biochem. 87:1305-1312 (1980)). After heating EGTA for 15 minutes at 80° C., the pH was adjusted to 7.0 by addition of NaOH. EGTA was filter-sterilized using a 0.2 μm Acro disc filter (Gelman Sciences; Ann Arbor, Mich.) prior to the assay. Further dilutions were made in sterile PPB.

Question: For `CCCCCCCCCCCC[n+]1ccccc1` [DPC, dodecylpyridinium chloride], which “bactericidal effect against S. typhimurium (in words)” value is on record?
Answer: not great
